From PubChem BioAssay AID504834 (National Center for Advancing Translational Sciences (NCATS), 2011)
The campaign covered roughly 320,000 compounds. About 22,000 (6.9%) were called active. This list was built around the results that the source calls inconclusive (neither active nor inactive); the mix of calls is not that of the screen. Calls follow the shape of the dose curve; as a rule, active = well fitted inhibition curve with a large enough effect; inconclusive = small, poorly fitted or top-dose-only effect, or another doubt; inactive = no such curve, though single readings can be large or run the other way. A potency beside an inconclusive call is a rough fit, not a confirmed value.
% is scaled to controls: 0 for no effect and ±100 for the full control effect; potency is read from the fitted curve at half-maximal effect.

Test: Primary qHTS for delayed death inhibitors of the malarial parasite plastid, 96 hour incubation
Conditions: P. falciparum luciferase reporter growth; series mostly up to 28.7 µM
How it was run: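 P. falciparum expressing integrated firefly luciferase grown in erythrocytes (2% hematocrit, 0.05% parasitemia final) with compounds for 96 hours at 37 C, 5% CO2. Growth inhibition read as loss of luminescence after adding luciferase detection reagent.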
With CC1CN(CCOc2ccccc2-c2ccccc2)CC(C)O1 (stereo unspecified) the Potency was inconclusive: 18.5 µM [inhibitor, single point]. In the case of Cc1ccc(NC(=O)c2ccc(-n3cncn3)c([N+](=O)[O-])c2)cc1F, the Potency is reported as inconclusive: 7.38 µM [inhibitor, partial curve, poor fit]. In the case of CCSc1nc(N)c(C#N)c(-c2ccco2)c1C#N, the Potency is reported as inconclusive: 9.28 µM [inhibitor, partial curve, poor fit]. For O=C(O)C1Sc2[nH]c(=O)sc2C2c3ccc(O)cc3OC(=O)C12 (stereo unspecified), the activity change, negative = inhibition was inactive: 86.3% [at 5.75 µM]. For CCc1cccc(Nc2cc(C)nc3nc(C)nn23)c1, the Potency was active: 8.28 µM. With COc1ccccc1NC(=O)CSc1ccc2nnc(-c3ccncc3)n2n1 the Potency was inconclusive: 8.28 µM [inhibitor, partial curve, poor fit]. In the case of O=C1CCC(=O)N1OCCOc1ccc(Cl)c2ccccc12, the Potency is reported as “inactive”. For N#Cc1ccsc1NC(=O)CN1CCN(c2ccccc2O)CC1, the Potency was inconclusive: 14.7 µM [inhibitor, partial curve, poor fit]. With Nc1ccc2cc(Br)ccc2c1 the Potency was inconclusive: 4.65 µM [inhibitor, partial curve, poor fit]. With Cc1ccccc1Nc1nc(N)nc(CN2CCN(Cc3ccc4c(c3)OCO4)CC2)n1 the Potency was inconclusive: 18.5 µM [inhibitor, single point]. For CN(CC(=O)Nc1ccccc1Br)C(=O)c1sccc1-c1ccccc1, the Potency was inconclusive: 13.1 µM [inhibitor, single point]. For COc1ccc(COCCN2CCN(S(=O)(=O)c3ccc(C)cc3)CCC2=O)cc1, the Potency was inconclusive: 11.7 µM [inhibitor, single point]. For COc1cccc(-c2noc(C(C)n3nc(C)c([N+](=O)[O-])c3C)n2)c1 (stereo unspecified), the Potency was “inactive”. For CNC(=O)COC(=O)/C=C/c1cn(-c2ccccc2)nc1-c1ccc2c(c1)OCCO2, the Potency was inconclusive: 1.17 µM [inhibitor, partial curve, poor fit]. For COc1cccc(NC(=O)c2ccccc2Br)c1, the Potency was “inactive”. For COc1cc2c(cc1OC)C(C)N(C(=S)Nc1ccccc1)CC2 (stereo unspecified), the Potency was “inactive”. For CCn1c(SCC(=O)Nc2ccc3c(c2)OCCO3)nnc1-c1cccs1, the Potency was inconclusive: 0.657 µM [inhibitor, partial curve, poor fit]. For O=C(NNC(=O)c1cc2cc(OC(F)(F)F)ccc2[nH]1)c1cccc(C(F)(F)F)c1, the Potency was “inactive”. For Cc1c(NC(=O)c2cccc(S(=O)(=O)N3CCOCC3)c2)c(=O)n(-c2ccccc2)n1C, the Potency was active: 8.28 µM. With O=C(O)Cn1cc(/C=C2\C(=O)NC(=O)N(c3ccc(F)cc3)C2=O)c2ccccc21 the Potency was inconclusive: 0.0029 µM [inhibitor, full curve, poor fit]. For O=C1C(=O)N(CCO)C(c2ccccc2)/C1=C(\O)c1ccccc1 (stereo unspecified), the Potency was inconclusive: 5.86 µM [inhibitor, partial curve]. With COc1ccc(OC)c(NC(=O)CCNC(=O)Cn2ccc3ccccc3c2=O)c1 the Potency was inconclusive: 11.7 µM [inhibitor, single point]. For COc1cc(-c2cc(=O)c3c(O)c(OC)c(OC)c(O)c3o2)ccc1O, the Potency was “inactive”. With COc1cc(OC)cc(C(=O)N[C@H](C(=O)Nc2ccc(S(=O)(=O)N(C)C)cc2)C(C)C)c1 the Potency was inconclusive: 1.47 µM [inhibitor, partial curve, poor fit]. In the case of Cc1cccc(NC(=O)CN2C(=O)CCS(=O)(=O)c3ccccc32)c1C, the Potency is reported as inconclusive: 8.28 µM [inhibitor, partial curve]. With COC(=O)c1ccccc1NC(=O)CNCCc1ccc(OC)c(OC)c1 the Potency was “inactive”. For Cc1ccc(C(=O)N(Nc2nc3ccccc3s2)C(=O)c2ccc(C)cc2)cc1, the Potency was inconclusive: 18.5 µM [inhibitor, single point]. With CCOCc1c(C(=O)Nc2ccc(OC)nc2)oc2ccccc12 the Potency was “inactive”. With Cc1cc(Cl)c(OCCCCN2CCOCC2)c(Br)c1 the Potency was inconclusive: 11.7 µM [inhibitor, single point]. With C#Cc1cccc(NC(=O)c2ccc(Cl)cc2Cl)c1 the Potency was “inactive”. With COc1cccc(-c2nc(CS(=O)(=O)CC(=O)NCCCN3C(C)CCCC3C)c(C)o2)c1 (stereo unspecified) the Potency was inconclusive: 18.5 µM [inhibitor, single point]. In the case of COc1cc(/C=N/NC(=O)c2ccoc2C)cc(OC)c1O, the Potency is reported as active: 2.62 µM. With CCOc1ccc(-n2ccc(=O)c(C(=O)Nc3ccc(S(=O)(=O)Nc4nccs4)cc3)n2)cc1 the Potency was inconclusive: 18.5 µM [inhibitor, single point]. With COc1ccc(/C=C/C(=O)O)cc1S(=O)(=O)NCc1ccco1 the Potency was “inactive”. For N#C/C=C(/c1ccc(F)cc1)N1CCOCC1, the Potency was inconclusive: 2.08 µM [inhibitor, full curve, poor fit]. For Cc1ccc(S(=O)(=O)N2CCN(C)CC2)c2nsnc12, the Potency was “inactive”. In the case of CCCOP(=O)(OCCC)c1nc(-c2ccccc2)oc1NCc1ccccc1, the Potency is reported as active: 3.7 µM. In the case of CCCS(=O)(=O)N1CCC(C(=O)NCCCOC(C)C)CC1, the Potency is reported as active: 9.28 µM. In the case of O=C(O)c1ccccc1C(=O)Nc1n[nH]c(=S)s1, the Potency is reported as “inactive”. With C=CCNC(=S)/C(=C(/[O-])c1ccccc1Br)[n+]1ccccc1 the Potency was “inactive”. For COc1ccc(OC)c(/C=C2\SC(N3CCCC(C)C3)=NC2=O)c1 (stereo unspecified), the Potency was “inactive”. For CCOC(=O)c1cnc2ccc(OCC)cc2c1NCCN1CCOCC1, the Potency was inconclusive: 10.4 µM [inhibitor, single point]. In the case of Cc1ccc(C(=O)NCC2CCCO2)cc1N1CCCC1=O (stereo unspecified), the Potency is reported as inconclusive: 10.4 µM [inhibitor, single point]. With CN1C(=O)C(C)(C)c2cc(S(=O)(=O)N3CCCC(C(=O)NCc4ccc(F)cc4)C3)ccc21 (stereo unspecified) the Potency was active: 10.4 µM. For COc1ccnc(Oc2ccc(F)cc2)c1C(=O)N/C=N/OCc1ccc(F)cc1Cl, the Potency was inconclusive: 10.4 µM [inhibitor, single point]. In the case of O=C(COc1ccc([N+](=O)[O-])cc1)Nc1ccc(N2CCN(C(=O)c3ccco3)CC2)cc1, the Potency is reported as active: 5.22 µM.
